Values of other authors in patent publication US20060263327A1, “Method for the production of a stable injectable formulation made of difficult to dissolve antineoplastic active substances” (priority 2003, published 2006).

solubility in water: only poorly soluble
Compound: CC(=O)O[C@H]1C(=O)[C@@]2(C)[C@H]([C@H](OC(=O)c3ccccc3)[C@]3(O)C[C@H](OC(=O)[C@H](O)[C@@H](NC(=O)c4ccccc4)c4ccccc4)C(C)=C1C3(C)C)[C@]1(OC(C)=O)CO[C@@H]1C[C@@H]2O [Paclitaxel]
